Assay results from paper PMC7862700.
The entries are a selection whose mix differs from that of the whole data set. At the low end of the ranking the order means little.

Target: T1, ELK3 (UniProt P41970)
T1 sequence: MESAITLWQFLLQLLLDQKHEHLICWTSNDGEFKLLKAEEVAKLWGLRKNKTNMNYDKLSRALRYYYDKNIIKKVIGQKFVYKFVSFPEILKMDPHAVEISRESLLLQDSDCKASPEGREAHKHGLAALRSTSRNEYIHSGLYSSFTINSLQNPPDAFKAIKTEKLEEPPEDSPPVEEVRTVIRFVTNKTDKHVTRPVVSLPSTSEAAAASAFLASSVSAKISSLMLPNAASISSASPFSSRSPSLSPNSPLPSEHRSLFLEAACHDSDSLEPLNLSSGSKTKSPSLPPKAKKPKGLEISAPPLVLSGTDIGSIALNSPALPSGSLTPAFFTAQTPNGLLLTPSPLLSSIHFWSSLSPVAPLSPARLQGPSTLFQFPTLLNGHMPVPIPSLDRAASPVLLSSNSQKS
Assay: DAPPL (digital affinity profiling via proximity ligation, sequencing)
Conditions: 10 mM Tris-HCl pH 7.5, 50 mM NaCl, 1 mM DTT, 4% glycerol, room temperature, 30 min; GST-TFs on glutathione beads, 16-mer random dsDNA library, 0.1% …; high values mean tight binding; double strand, one strand shown; scale: fold enrichment (6-mer frequency, TF over GST control)

Row | Sequence | binding signal
1 | TAGGCA | 0.983
2 | TTTGAC | 1.34
3 | CAAGTT | 1.03
4 | GGGAAA | 0.996
5 | TATAGC | 1.1
6 | AAATCG | 1.04
7 | CCCCAC | 1.34
8 | CTGGTG | 1.15
9 | CAATGG | 0.933
10 | CCTCTG | 1.58
11 | TGCCCA | 0.904
12 | CCTGCG | 1.22
13 | TTAAGA | 1.02
14 | AGAATA | 0.926
15 | GCGATC | 0.989
16 | CACGCA | 1.14

Target: T2, SPIC (UniProt Q8N5J4)
T2 sequence: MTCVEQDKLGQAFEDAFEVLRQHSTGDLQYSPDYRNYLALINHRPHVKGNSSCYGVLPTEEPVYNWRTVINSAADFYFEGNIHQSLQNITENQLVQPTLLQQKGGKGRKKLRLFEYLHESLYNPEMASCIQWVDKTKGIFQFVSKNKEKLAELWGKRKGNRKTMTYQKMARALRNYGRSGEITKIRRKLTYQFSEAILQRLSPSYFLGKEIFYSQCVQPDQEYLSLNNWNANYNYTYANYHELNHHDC
Assay: as above
Conditions: 10 mM Tris-HCl pH 7.5, 50 mM NaCl, 1 mM DTT, 4% glycerol, room temperature, 30 min; GST-TFs on glutathione beads, 16-mer random dsDNA library, 0.1% …; high values mean tight binding; double strand, one strand shown; scale: fold enrichment (6-mer frequency, TF over GST control)

Row | Sequence | binding signal
17 | TGCGAC | 1.3
18 | TGCGAA | 1.02
19 | TAGGCA | 1.11
20 | TTTGAC | 1.3
21 | CAAGTT | 0.989
22 | GGGAAA | 0.988
23 | TTGAAA | 1.15
24 | TATAGC | 1.31
25 | ACTTCG | 1.55
26 | TCATAC | 0.948
27 | CACGCG | 1.29
28 | GACACT | 0.83
29 | GATAGC | 1.07
30 | TTTTAG | 1.13
31 | AAATCG | 1
32 | CCCCAC | 1.33
33 | TAAAGC | 1.1
34 | CTGGTG | 0.827
35 | TGTCCG | 1.36
36 | TGGGGT | 0.975

Row | Sequence | binding signal
37 | GTACAC | 1.33
38 | TTTGCA | 1.23
39 | CAATGG | 0.929
40 | TCCTAG | 1.2
41 | AGATTA | 0.895
42 | CCTCTG | 1.44
43 | TGCCCA | 0.961
44 | CCTGCG | 1.12
45 | TTGGTA | 1.2
46 | TTAAGA | 1.12
47 | CACATA | 1.07
48 | TATCTG | 1.17
49 | TCAGCA | 1.1
50 | AGAATA | 0.986
51 | GCGATC | 0.977
52 | CACGCA | 0.953
53 | AAGGGC | 0.999
54 | ACTGCA | 1.34
55 | TTAGGT | 0.948
